In article PMC5371411 one finds binding data, which are given here for one substance.

Sequences of proteins named here, by UniProt entry; tags and fusion partners are left off.
UniProt Q47184: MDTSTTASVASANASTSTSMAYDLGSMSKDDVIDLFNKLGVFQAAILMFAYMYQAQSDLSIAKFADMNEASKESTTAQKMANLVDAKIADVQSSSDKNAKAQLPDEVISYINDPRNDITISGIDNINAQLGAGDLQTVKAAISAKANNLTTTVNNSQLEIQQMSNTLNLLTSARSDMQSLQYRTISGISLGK

Experiment [1] concerns the target His-EspCΔMiddle (enteropathogenic Escherichia coli (EPEC)) (UniProt Q9EZE7). Put plainly: far-Western, overlay or dot blot; both purified.
For experiment [2] the target is unchanged. Kind of experiment: far-Western, overlay or dot blot; dot blot overlay under nondenaturing conditions: EspC and derivatives (2.5, 5, 10, 20 nM) adsorbed to nitrocellulose, incubated with His-EspA at 5 µg/ml in binding buffer for 1.5 h; detected with anti-EspA; both purified.

These are yes or no findings as the source states them, for the method shown. Some entries that bind do so weakly or less than the wild type.

As to His-EspA (from UniProt Q47184 1-192), the binding entry in experiment [1] and in experiment [2] was “binds” each time.
